Measured values as given in PubChem BioAssay AID2685 (National Center for Advancing Translational Sciences (NCATS), 2010).
This is one part of the list. Shown are side measurements of this screen, not its main read-out; they come without a call. The list favours compounds with an active or inconclusive main result. Words in brackets tell the shape of the fitted curve; partial curves, single points and poor fits give uncertain potencies.

Test: qHTS Assay for Lipid Storage Modulators in Drosophila S3 Cells;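 for cell number change: cells counted by Cell Tracker Red CMTPX staining in the red channel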
Settings: BODIPY lipid droplet fluorescence, 18-24 h; for cell number change: measured here: cell count max response, cells fed with added oleic acid
Outline: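 Drosophila S3 cells loaded with oleic acid (400 uM, as added) and compounds at several concentrations; lipid droplets imaged by 488-nm laser-scanning cytometry, 500–530 nm intensity and object ratio to cell channel. Percent activity normalized to 20 uM Triacsin C.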

[1] = measured here: cell number channel AC50, cells fed with added oleic acid
[2] = measured here: lipid fluorescence (Fed channel) AC50, cells fed with added oleic acid

| Structure (SMILES) | cell number change | AC50 [1] | AC50 [2] |
| --- | --- | --- | --- |
| C=CCNc1nc(N)c(C(=O)c2ccc3c(c2)OCO3)s1 | 83.1% | 20.6 µM [rising, partial curve, poor fit] | 0.82 µM [rising, full curve] |
| Cc1cc(/C=C2\SC(=Nc3ccc(N4CCOCC4)cc3)N(C)C2=O)c(C)n1-c1cccnc1 | -9.39% |  | 2.31 µM [falling, full curve, poor fit] |
| CCCCN(C)C(=O)CCC(=O)Nc1ccc2nc(N3CCOCC3)cc(C)c2c1 | -30.9% | 32.6 µM [falling, single point] | 29.1 µM [falling, single point] |
| Cn1nc(C(=O)N2CCCc3ccccc32)c2ccccc2c1=O | 12% | 3.26 µM [rising, single point] |  |
| COc1cc2c(cc1OC)C(COc1ccc(C(C)C)cc1)NCC2 (stereo unspecified) | -4.72% |  |  |
| CC1(C)CC(O)C(CCC(O)c2ccccc2)C(C)(C)N1 (stereo unspecified) | -0.104% |  | 29.1 µM [falling, single point] |
| O=C(CCN1C(=O)/C(=C/C=C/c2ccccc2)SC1=S)Nc1cccnc1 | -70.6% | 14.6 µM [falling, partial curve, poor fit] | 16.4 µM [falling, partial curve] |
| COC(=O)c1sccc1NC(=O)c1c(-c2ccccc2)noc1C | 3.7% |  | 0.103 µM [falling, full curve, poor fit] |
| CCOC(OCC)P(=O)(c1ccccc1)c1ccccc1 | -1.08% |  | 0.326 µM [rising, full curve, poor fit] |
| Cc1ccsc1C(=O)Nc1nnc(-c2ccco2)o1 | -89.8% | 23.1 µM [falling, single point] | 29.1 µM [falling, single point] |
| CCCCSCCCNC(=O)CS(=O)Cc1nc(-c2cccc(C)c2)oc1C (stereo unspecified) | -17.8% |  | 18.4 µM [rising, partial curve] |
| Cn1cc(Br)c(C(=O)N/N=C/c2cccc(OC3CSC3)c2)n1 | 10.7% |  | 23.1 µM [rising, single point] |
| COc1cc(S(=O)(=O)N(Cc2ccco2)C2CCCC2)ccc1-n1cnnn1 | -18.5% |  |  |
| Cc1ccc(-n2c(C)cc(C=C(C#N)C#N)c2C)cc1 | -26.2% |  | 29.1 µM [falling, single point] |
| O=C(Nc1ccc(S(=O)(=O)N2CCOCC2)cc1)c1ccc2c(c1)S(=O)(=O)c1ccccc1C2=O | 140% | 18.4 µM [rising, partial curve] | 18.4 µM [rising, partial curve] |
| O=C(O)c1cc(-c2cccs2)nn1-c1ccccc1 | -31.3% |  |  |
| Cc1cc(CN2C(=O)c3ccccc3C2=O)cc(N2CCOCC2)c1 | 20.3% |  | 0.103 µM [rising, full curve, poor fit] |
| COc1ccc(/C=N/NC(=O)CNS(=O)(=O)c2ccccc2)cc1 | -9.59% |  | 6.51 µM [rising, single point] |
| CC1=C(C#N)C(c2ccccc2)C2=C(N1)c1ccccc1C2=O (stereo unspecified) | 22.2% |  |  |
| CCOC(=O)C1CCCN(C(=O)c2ccc(Cl)c(S(=O)(=O)N3CCCCC3)c2)C1 (stereo unspecified) | -12% | 0.00651 µM [falling, full curve, poor fit] | 0.00517 µM [falling, full curve, poor fit] |

| Structure (SMILES) | cell number change | AC50 [1] | AC50 [2] |
| --- | --- | --- | --- |
| COc1ccc(Cl)cc1Nc1nc(-c2cccnc2)cs1 | -39% | 13 µM [falling, partial curve] | 29.1 µM [falling, single point] |
| CC(=O)Nc1ccc(NC(=O)c2ccccc2C)cc1 | 19.1% |  | 0.58 µM [falling, single point] |
| COc1ccc(CNC(=O)CNS(=O)(=O)c2cccs2)cc1 | -1.35% |  | 6.51 µM [rising, single point] |
| CC(=O)Nc1ccc(N/C(C)=C/C(=O)c2cccnc2)cc1 | 9.47% |  | 0.92 µM [rising, full curve, poor fit] |
| CC(=O)C1=C(O)C(=O)N(c2cccc(Br)c2)C1c1ccc(Br)cc1 (stereo unspecified) | -3.3% |  | 29.1 µM [rising, single point] |
| Cc1nn(C)cc1S(=O)(=O)NC1CCCC1 | -32.3% | 35.5 µM [falling, single point] |  |
| CC[C@@H]1CC=C[C@H]2[C@H]1C(=O)N(Cc1ccccc1)[C@H]2c1ccoc1 | -16% |  |  |
| COc1cc2nc(Nc3cccc(F)c3)nc(N)c2cc1OC | 5.56% |  |  |
| Cc1nc([N+](=O)[O-])cn1CC(O)c1ccc(-c2ccccc2)cc1 (stereo unspecified) | 42.1% | 20.6 µM [rising, single point] |  |
| COc1cc(NC(=O)CSc2nc3c(c(=O)n(C)c(=O)n3C)n2C)cc(OC)c1 | 7.39% |  | 6.51 µM [falling, single point] |
| COc1ccc(N2CCN(S(=O)(=O)CCNC(=O)c3ccc4c(c3)OCO4)CC2)cc1 | -5.38% |  | 18.4 µM [rising, single point] |
| COc1cccc(-c2c(C(=O)N/N=C(\C)COc3ccccc3)nnn2-c2nonc2N)c1 | 8.06% |  | 3.66 µM [rising, full curve] |
| O=C(COC(=O)COc1ccccc1)Nc1ccccc1OC(F)F | 34% | 13 µM [rising, single point] |  |
| Nc1c(C(=O)CSc2nnc(Nc3ccc(F)cc3)s2)c(=O)[nH]c(=O)n1C1CC1 | 12.9% |  | 6.51 µM [rising, single point] |
| Cc1ccc(S(=O)(=O)N(C)c2ccc(C(=O)NCc3cccnc3)cc2)cc1 | 34.8% | 0.13 µM [rising, full curve, poor fit] | 6.51 µM [rising, single point] |
| O=C(Cc1ccccc1)N1CCCC1c1ccccc1 (stereo unspecified) | -0.209% |  |  |
| O=C(Nc1ccccc1NC(=O)c1c(F)c(F)c(F)c(F)c1F)c1c(F)c(F)c(F)c(F)c1F |  |  | 2.06 µM [falling, partial curve] |
| CCCCOc1ccc(C(=O)N/C(=C/C=C/c2ccccc2)C(=O)NCCO)cc1 | -9.63% | 1.46 µM [falling, single point] |  |
| CCOC(=O)Cn1ccc(NC(=O)COc2ccc(F)cc2)n1 | 1.74% |  |  |
| O=C(OCC#CCSc1nnc(-c2cccc3ccccc23)o1)c1cccc2[nH]ccc12 | 1.91% |  | 0.184 µM [rising, full curve, poor fit] |

Part of the list above in order of SMILES length, falling:

| Structure (SMILES) | cell number change | AC50 [1] | AC50 [2] |
| --- | --- | --- | --- |
| O=C(Nc1ccc(S(=O)(=O)N2CCOCC2)cc1)c1ccc2c(c1)S(=O)(=O)c1ccccc1C2=O | 140% | 18.4 µM [rising, partial curve] | 18.4 µM [rising, partial curve] |
| O=C(Nc1ccccc1NC(=O)c1c(F)c(F)c(F)c(F)c1F)c1c(F)c(F)c(F)c(F)c1F |  |  | 2.06 µM [falling, partial curve] |
| Cc1nc([N+](=O)[O-])cn1CC(O)c1ccc(-c2ccccc2)cc1 (stereo unspecified) | 42.1% | 20.6 µM [rising, single point] |  |
| CC(=O)Nc1ccc(N/C(C)=C/C(=O)c2cccnc2)cc1 | 9.47% |  | 0.92 µM [rising, full curve, poor fit] |

Additional results:

| Structure (SMILES) | cell number change | AC50 [1] | AC50 [2] |
| --- | --- | --- | --- |
| NC(=O)CCCn1c(C(=O)c2ccc(Cl)cc2)c2ccc(C(F)(F)F)cc2[n+]1[O-] | -34.3% | 13 µM [falling, partial curve, poor fit] | 29.1 µM [rising, single point] |
| O=C(O)c1cccc(NC(=O)C23CC4CC(C2)CC(n2cnc(Cl)n2)(C4)C3)c1 | 2.47% |  | 0.13 µM [falling, full curve, poor fit] |
| CCOc1ccccc1N1CSC2=C(C#N)C(c3c(OC)ccc4ccccc34)CC(=O)N2C1 (stereo unspecified) | 3.04% |  | 29.1 µM [falling, single point] |
| Cc1ccc(C(=O)NCC(=O)NCC(c2ccco2)N2CCCCC2)cc1C (stereo unspecified) |  | 1.3 µM [rising, full curve, poor fit] |  |
| O=C(Oc1ccc(F)cc1)N1CCOCC1 |  | 6.51 µM [rising, single point] |  |
| CCOc1ccc(Nc2nc3ccccc3n3cnnc23)cc1 | -22.2% | 0.184 µM [falling, full curve, poor fit] | 0.13 µM [falling, partial curve, poor fit] |
| CCOC(=O)C(C)Sc1nnc(NC(=O)c2ccc(C)c([N+](=O)[O-])c2)s1 (stereo unspecified) | 18.4% |  | 4.11 µM [rising, full curve, poor fit] |
| O=C(Nc1ccc(-n2cccn2)cc1)C1CCN(Cc2ccsc2)CC1 | 30% | 13 µM [rising, partial curve, poor fit] |  |
| Cc1cccc(NC(=O)CCc2c(C)nc3ncnn3c2C)n1 | 21.8% |  | 0.00461 µM [falling, full curve, poor fit] |
| O=C(NCCc1ccc(Cl)cc1)C1CCN(c2cnccn2)CC1 | -8.53% |  | 3.26 µM [rising, single point] |
| CC1CCCC(NC(=O)C2CCN(S(=O)(=O)N3CCOCC3)CC2)C1C (stereo unspecified) | 167% |  | 29.1 µM [rising, single point] |
| Cc1cccc(N2CCN(C(=O)/C=C/c3cccs3)CC2)c1C | 30% | 2.91 µM [rising, full curve, poor fit] | 4.11 µM [rising, single point] |
| CCCCCCSc1ccc([C@@H]2[C@@H]3C(=O)N(C)C(=O)[C@@H]3[C@]3(C(=O)OC)CCCCN23)cc1OC | -61.4% | 23.1 µM [falling, partial curve] |  |
| CCOc1ccccc1NC(=O)c1ccc2c(=O)n3c(nc2c1)CCCCC3 |  |  | 3.66 µM [falling, single point] |
| Cc1ccc(S(=O)(=O)CCC(=O)Nc2nc(-c3ccccn3)cs2)cc1 | 6.39% |  | 20.6 µM [falling, partial curve] |
| CCN(CC)S(=O)(=O)c1ccc(N2CCCC2)c(NC(=O)c2ccccc2OC)c1 | 5.43% |  | 0.461 µM [rising, full curve, poor fit] |
| Cc1ccc(Nc2ncccc2C(=O)NCc2cccs2)c(C)c1 | 27.3% |  |  |
| O=C(Nc1ccc(NC(=O)c2ccco2)cc1)c1cnccn1 | -3.16% |  | 13 µM [rising, partial curve, poor fit] |
| Cc1ccc(C(=O)C(C)OC(=O)c2ccccc2[N+](=O)[O-])cc1 (stereo unspecified) | 17.2% |  | 7.31 µM [falling, single point] |
